# Percent effect of library compounds

T. brucei: 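Whole-parasite assay of Trypanosoma brucei over 72 hours; the read-out is not stated. Concentration: 30 µM. The record gives no direction; compounds that gave an IC50 in retests scored well above the rest, so higher reads as stronger inhibition. Values scatter widely below zero; nearly all retest evidence comes from the higher of the two concentrations used. Size under these conditions: about 64,000 compounds, about 940 of them at 50% or above in at least one test.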
Toxoplasma: 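Assay of Toxoplasma gondii numbers, read through their beta-galactosidase reporter with a colour substrate. Concentration: 10 µM. Higher reads as fewer parasites (inferred from which compounds were picked for retests). Size under these conditions: about 67,000 compounds, about 260 of them at 50% or above in at least one test.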

Results are given as percent effect.
How 0% and 100% were set is not recorded. Most values in the screen are low, and negative values occur.
Compounds were drawn at random from those tested, without regard to their results.
A dash means the value is not listed here; it may have been measured.

Compound,T. brucei,Toxoplasma
CCC(CC)(CNC(=O)c1cccn1Cc1cccnc1)N(C)C,-8.446%,-10.68%
C1=CCN(c2nc(CC3CC3)nc3c2CCN(C2CCOCC2)CC3)C1,-3.803%,2.492%
CN(C)CC(=O)N1CC2(CCN(Cc3ccccc3)C2)C1,1.824%,15.27%
Cc1cccc(-c2c[nH]c(C3CCCN3C(=O)Cn3cc(C)cn3)n2)c1 (stereo not drawn),-47.28%,6.321%
Cc1nc(N2CCOc3ccc(CO)cc3C2)c2c(C)noc2n1,16.11%,3.448%
O=C(Nc1nccs1)NC1CCOc2ccccc21 (stereo not drawn),-41.26%,13.48%
O=C(NCCSC1CCCC1)c1cnccn1,-39.53%,0.9702%
COc1cc(C(C)=O)ccc1SCC(=O)Nc1cccc(C)n1,-23.95%,-4.452%
Cc1ccc(-c2ccnc(NC(C)c3n[nH]c(=O)[nH]3)n2)c(C)n1 (stereo not drawn),1.632%,-13.39%
Cc1ccsc1-c1nccn1CCN1CCCOC1=O,-24.02%,-12.87%
CC(c1nncn1C)n1cc(-c2cc(CN3CCCC3)cs2)nn1 (stereo not drawn),-11.57%,-4.092%
Cc1noc(NC(=O)c2ccc(Br)o2)n1,16.01%,3.866%
c1cnn(CCN2CCOC(Cn3cncn3)C2)c1 (stereo not drawn),-21.59%,-
O=C(O)C(F)(F)F.[H][C@@]12CCN(CC3CCCC3)C[C@]1(C(=O)N1CCOCC1)CCO2,-11.27%,-14.19%
O=C(Nc1cccc(CN2CCOC2=O)c1)N1CCCCCC1,-56.22%,22.52%
Cc1ccccc1CCC(=O)N1CCc2ncnc(NCCO)c2CC1,-15.04%,4.508%
Cc1ccsc1C(=O)N1Cc2ccccc2C2(CCN(C)CC2)C1,-9.29%,-12.81%
COc1cccc(CNC(=O)C(c2cccc(F)c2)N2CCOCC2)c1 (stereo not drawn),22.23%,2.061%
CC(C)(Cn1cnc(-c2ccccc2)c1-c1ccco1)N1CCOCC1,-6.844%,-15.89%
CN1CCC(CNC(=O)NCc2ccc(F)cc2)CC1,-15.73%,3.377%
[H][C@@]12CN(Cc3cccc(OC4CCCC4)c3)C[C@]1(C(=O)O)CNC2=O,-0.3123%,5.254%
CCCN1CCN(Cc2nccn2CC)C(C)C1 (stereo not drawn),-55.31%,-6.791%
COc1ccc(CNC(=O)N2CCCC(Nc3ccccc3)C2)cn1 (stereo not drawn),-5.795%,10.47%
CC(C)CCc1noc(C[S+]([O-])CC(=O)NCc2ccccc2)n1 (stereo not drawn),-6.244%,-6.081%
O=C(Nc1cc(-c2ccncc2)no1)C1CCCCC1,22.81%,6.052%
CCCNC(=O)CNc1cc(C#N)ccc1OCC,58.39%,-
O=C(c1ccc(S(=O)(=O)NCc2ccon2)cc1)N1CCCCCC1,-70.02%,20.08%
CCCn1[nH]cc/c1=N\C(=O)CN1CCOC(Cn2cc(C)cn2)C1 (stereo not drawn),-3.038%,-2.311%
[H][C@]12CC[C@]([H])(CN(C(=O)c3cnccn3)C1)N(C(=O)Cc1ccsc1)C2,-11.15%,4.636%
CCc1[nH]c2ccc(CNC(=O)Cc3c(C)nc(N)nc3C)cc2c1C,-16.63%,-8.614%
CNC(=O)c1cn[nH]c1C1CCN(Cc2cccc(C)c2OC)C1 (stereo not drawn),-8.412%,9.714%
CN(C)CCN(Cc1ccc(F)cc1)C(=O)c1ccn(C)c(=O)c1,-38.48%,-21.34%
O=C(O)C(F)(F)F.c1ccc(N2CCCC3(COCCN(c4nccs4)C3)C2)nc1 (stereo not drawn),23.77%,-19.6%
Cc1csc(C2CCCCN2C(=O)c2cnn3ccc(C)nc23)n1 (stereo not drawn),12.5%,0.4072%
CC(C)c1n[nH]c(C(=O)Nc2ccncc2)c1Br,-10.71%,-
Cn1cccc1-c1cc(C(=O)N2CC(c3cccnc3)C2)[nH]n1,-4.473%,-1.532%
O=C(CCCC1CCCC1)NS(=O)(=O)CC1CC1,-8.369%,16.59%
NC(=O)CCN(C(=O)c1cccc2c1OCO2)c1ccccc1,-6.879%,5.33%
CCn1nc(C)c2c1cnn2CCNS(=O)(=O)CC,6.282%,-29.11%
[H][C@]12CCN(C(=O)N3CCCC3)[C@@]1([H])CCC(=O)N2Cc1ccncc1,-7.131%,-6.711%
Cc1nnnn1CCC(=O)N1CCC2(CCC(=O)N(CC3CC3)C2)CC1,-39.7%,-2.632%
CCOc1nnc(CNC2CCCN(c3ccc(C)nn3)C2)s1 (stereo not drawn),0.8262%,7.984%
O=C(O)C(F)(F)F.[H][C@]12CCC[C@@]1(COCc1cccnc1)CN(S(=O)(=O)N(C)C)C2,-10.94%,8.259%
Cc1cc(NC(=O)CN2CCn3c(nnc3C3CC3)C2)no1,24.13%,3.59%
CN(C)S(=O)(=O)N1CCN(c2nccc(C(F)(F)F)n2)CC1,-77.81%,10.07%
CC(C)CC(=O)N1CC(=O)c2sc(Nc3ccc(C#N)cc3)nc2C1,-13.31%,13%
CCC1=NN2C(=N)/C(=C\c3cccn3-c3ccc(Br)cc3)C(=O)N=C2S1,-1.28%,0.7422%
CCc1ccc(CC)c(NCC(=O)N2CCCC(NC(C)=O)C2)c1 (stereo not drawn),-31.75%,-2.862%
COc1ccc(-c2noc([C@@H]3C[C@@H](O)CN3C3CCN(C)CC3)n2)cc1,-6.347%,-7.196%
Cc1c(C(=O)N2CCCSCC2)nnn1-c1ccccc1Cl,-11.7%,-2.243%
CN(C)CCCNC(=O)c1cc(Br)c2c(c1)OCCO2,32.69%,-4.075%
CC(C)c1nccn1CCC(=O)N1CCCCC1c1ccn[nH]1 (stereo not drawn),-8.231%,8.779%
CC(C)CN1CCC2(C=C(C(=O)NC3CC3)c3ccccc32)CC1.O=C(O)C(F)(F)F,5.739%,-27.33%
Cc1ccc(C(=O)N2CCC(n3cc(CN)nn3)CC2)cc1F,-16.28%,1.872%
CN(C)C(=O)COc1ccccc1CN1CCOC2(CCCC2)C1,-40.64%,-3.333%
CCC(=O)N1CCC2(CC1)CNC(=O)c1cc(C)ccc1O2,-8.433%,-12.96%
O=C(NCCNc1ncccn1)C1CC(=O)N(Cc2ccccn2)C1 (stereo not drawn),-37.82%,66.32%
O=C(O)C(F)(F)F.O=C(O)C(F)(F)F.[H][C@@]12CCCO[C@]1([H])[C@@H](Oc1ncccc1F)CN2Cc1ccoc1,-45.96%,24.93%
Fc1ccc(OCc2nnc([C@H]3CCN(Cc4ccncc4)C3)o2)cc1,-19.49%,-9.807%

From ChEMBL document CHEMBL3988442, “University of Dundee, Small-Polar-MMV Screening Library” (2021).